Experimental data published in article doi:10.64898/2025.12.08.693004 (bioRxiv, 2025).
These are yes or no findings as the source states them, for the method shown. Some binding calls cover weakened binding; strength is not graded here. Sequences can lack the tags named with a protein.

T1: human EphrinB1-Fc (human) (UniProt P98172)
T1 sequence: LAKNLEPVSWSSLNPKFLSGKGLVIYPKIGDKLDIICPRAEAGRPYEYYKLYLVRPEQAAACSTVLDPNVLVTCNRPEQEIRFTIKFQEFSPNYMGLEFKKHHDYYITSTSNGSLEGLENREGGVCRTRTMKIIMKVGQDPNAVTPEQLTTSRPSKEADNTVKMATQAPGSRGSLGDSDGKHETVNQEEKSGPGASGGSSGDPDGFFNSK

T2: Rat EphB1-Fc protein (rat, UniProt P09759 18-538)
T2 sequence (looked up): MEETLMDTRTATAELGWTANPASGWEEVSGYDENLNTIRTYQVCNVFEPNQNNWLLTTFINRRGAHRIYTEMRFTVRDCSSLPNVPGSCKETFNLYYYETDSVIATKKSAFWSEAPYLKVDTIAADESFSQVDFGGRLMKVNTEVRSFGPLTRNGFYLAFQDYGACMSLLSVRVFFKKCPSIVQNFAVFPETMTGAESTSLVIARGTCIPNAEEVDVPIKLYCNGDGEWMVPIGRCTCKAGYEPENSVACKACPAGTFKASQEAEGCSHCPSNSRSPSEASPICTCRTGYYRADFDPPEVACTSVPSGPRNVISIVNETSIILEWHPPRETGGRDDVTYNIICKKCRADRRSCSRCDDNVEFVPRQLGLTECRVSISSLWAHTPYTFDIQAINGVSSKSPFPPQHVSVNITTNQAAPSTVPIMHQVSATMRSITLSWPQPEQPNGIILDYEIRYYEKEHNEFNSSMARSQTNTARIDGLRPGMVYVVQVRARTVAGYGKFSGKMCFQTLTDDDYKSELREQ

T3: Human EphB3-Fc (human, UniProt P54753 38-550)
T3 sequence (looked up): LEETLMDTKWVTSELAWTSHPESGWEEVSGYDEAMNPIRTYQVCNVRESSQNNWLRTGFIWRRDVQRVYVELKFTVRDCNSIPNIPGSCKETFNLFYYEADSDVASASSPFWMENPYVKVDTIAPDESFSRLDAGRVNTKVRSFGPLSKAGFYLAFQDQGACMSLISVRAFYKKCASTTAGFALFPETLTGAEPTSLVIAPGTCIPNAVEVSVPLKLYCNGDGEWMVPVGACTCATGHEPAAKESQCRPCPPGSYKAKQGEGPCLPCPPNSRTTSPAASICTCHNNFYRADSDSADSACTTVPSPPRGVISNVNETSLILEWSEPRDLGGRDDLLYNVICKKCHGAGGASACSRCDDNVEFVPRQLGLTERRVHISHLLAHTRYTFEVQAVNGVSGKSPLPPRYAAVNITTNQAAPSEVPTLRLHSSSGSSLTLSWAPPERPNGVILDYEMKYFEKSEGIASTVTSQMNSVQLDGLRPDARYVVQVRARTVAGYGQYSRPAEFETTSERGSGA


Columns and labels:
Experiment in all cases: BLI
[1] = molecular target: Human EphrinB2-Fc (human) (UniProt P52799)
[2] = molecular target: T1, human EphrinB1-Fc (human)
Rat EphB1-Fc protein = molecular target: T2, Rat EphB1-Fc protein
Human EphB3-Fc = molecular target: T3, Human EphB3-Fc

| Binder | binding [1] | binding [2] | binding (Rat EphB1-Fc protein) | binding (Human EphB3-Fc) |
| --- | --- | --- | --- | --- |
| Human EphB2-His (receptor, UniProt P29323 19-543) VEETLMDSTTATAELGWMVHPPSGWEEVSGYDENMNTIRTYQVCNVFESSQNNWLRTKFIRRRGAHRIHVEMKFSVRDCSSIPSVPGSCKETFNLYYYEADFDSATKTFPNWMENPWVKVDTIAADESFSQVDLGGRVMKINTEVRSFGPVSRSGFYLAFQDYGGCMSLIAVRVFYRKCPRIIQNGAIFQETLSGAESTSLVAARGSCIANAEEVDVPIKLYCNGDGEWLVPIGRCMCKAGFEAVENGTVCRGCPSGTFKANQGDEACTHCPINSRTTSEGATNCVCRNGYYRADLDPLDMPCTTIPSAPQAVISSVNETSLMLEWTPPRDSGGREDLVYNIICKSCGSGRGACTRCGDNVQYAPRQLGLTEPRIYISDLLAHTQYTFEIQAVNGVTDQSPFSPQFASVNITTNQAAPSAVSIMHQVSRTVDSITLSWSQPDQPNGVILDYELQYYEKELSEYNATAIKSPTNTVTVQGLKAGAIYVFQVRARTVAGYGRYSGKMYFQTMTEAEYQTSIQEKLPL | binds weakly | binds |  |  |
| Human EphB1-His (receptor, UniProt P54762 18-540) MEETLMDTRTATAELGWTANPASGWEEVSGYDENLNTIRTYQVCNVFEPNQNNWLLTTFINRRGAHRIYTEMRFTVRDCSSLPNVPGSCKETFNLYYYETDSVIATKKSAFWSEAPYLKVDTIAADESFSQVDFGGRLMKVNTEVRSFGPLTRNGFYLAFQDYGACMSLLSVRVFFKKCPSIVQNFAVFPETMTGAESTSLVIARGTCIPNAEEVDVPIKLYCNGDGEWMVPIGRCTCKPGYEPENSVACKACPAGTFKASQEAEGCSHCPSNSRSPAEASPICTCRTGYYRADFDPPEVACTSVPSGPRNVISIVNETSIILEWHPPRETGGRDDVTYNIICKKCRADRRSCSRCDDNVEFVPRQLGLTECRVSISSLWAHTPYTFDIQAINGVSSKSPFPPQHVSVNITTNQAAPSTVPIMHQVSATMRSITLSWPQPEQPNGIILDYEIRYYEKEHNEFNSSMARSQTNTARIDGLRPGMVYVVQVRARTVAGYGKFSGKMCFQTLTDDDYKSELREQLP | binds weakly | binds |  |  |
| Mouse EphrinB2-His protein (ligand, UniProt P52800 29-232, looked up) RSIVLEPIYWNSSNSKFLPGQGLVLYPQIGDKLDIICPKVDSKTVGQYEYYKVYMVDKDQADRCTIKKENTPLLNCARPDQDVKFTIKFQEFSPNLWGLEFQKNKDYYIISTSNGSLEGLDNQEGGVCQTRAMKILMKVGQDASSAGSARNHGPTRRPELEAGTNGRSSTTSPFVKPNPGSSTDGNSAGHSGNNLLGSEVALFA |  |  | binds weakly | binds weakly |
